Measurements reported in PubChem BioAssay AID504784 (Drosophila RNAi Screening Center, 2011).

Assay: 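Fly genes whose silencing alters how much lipid cells keep in droplets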 (primary screen)
System: Drosophila Kc167 embryonic cells
Reagent: long dsRNA against Drosophila genes, about 250 ng dsRNA per well
Time to read-out: 4 days
Treatment: cells fed 400 µM oleic acid bound to BSA
Measurement: 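Microscope images give a droplet-to-nucleus area ratio, taken as log and converted to a screen-wide B-score; higher values mean greater lipid storage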
Reading the numbers: droplet/nuclear area B-score: higher = more stored lipid (overstorage)
In all, the deposit lists about 17,000 reagents; shown is an unselected part of those that have a named target and a result. 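Each column is one replicate's B-score; the combined score over replicates was not deposited, so single values may mislead.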 Names joined by + are all predicted targets of the reagent. No sequences are given here.

gene | amplicon | droplet/nuclear area B-score, replicate 1 | droplet/nuclear area B-score, replicate 2 | droplet/nuclear area B-score, replicate 3
Su(var)2-HP2 | DRSC06204 | 0.171 | 4.39 | –
Phlpp | DRSC02065 | 0.173 | -1.32 | –
Phlpp | DRSC22808 | -0.753 | 0.0436 | –
pdm3 | DRSC06076 | -0.174 | -0.581 | –
pdm3 | DRSC06490 | -0.674 | -1.54 | –
pdm3 | DRSC22326 | 9.48 | 3.29 | –
pdm3 | DRSC23181 | 0.57 | -0.465 | –
CG34149 | DRSC14537 | -0.699 | -1.84 | –
CG13073 | DRSC09956 | 0.491 | 1.59 | –
mTerf3 | DRSC11759 | 1.82 | 0.0209 | -0.921
CG13026 | DRSC09906 | 0.0103 | -0.173 | –
CG3222 | DRSC10355 | 1.01 | 0.82 | –
CG6006 | DRSC13137 | 0.285 | -1.08 | –
CG6006 | DRSC15946 | -0.533 | 0.355 | –
CG8292 | DRSC03082 | 1.6 | 0.423 | –
Spf30 | DRSC11976 | -1.67 | -1.58 | –
Faf2 | DRSC03325 | -1.23 | -0.308 | –
CG13692 | DRSC00361 | 0.713 | -0.2 | –
CG9269 | DRSC16465 | 1.01 | -0.0106 | –
Bx42 | DRSC17743 | -2.86 | -2.31 | -2.18
Traf6 | DRSC18725 | 0.606 | -0.011 | –
mthl2 | DRSC10287 | 0.0118 | -1.13 | –
Rat1 | DRSC02044 | -1.32 | -0.586 | –
CG15403 | DRSC00417 | 1.2 | 0.289 | –
CG4806 | DRSC04491 | 0.0227 | 0.239 | –
CG13843 | DRSC14693 | -1.66 | 0.438 | –
CG17104 | DRSC02573 | -0.0333 | -1.16 | –
Or43b | DRSC07486 | 0.945 | 0.432 | –
nec | DRSC06769 | 0.119 | 0.71 | –
CG3164 | DRSC00572 | 2.16 | 1.13 | –
Idgf6 | DRSC07360 | 1.63 | -0.763 | –
mex1 | DRSC11368 | -0.536 | 1.97 | –
ND-B14.5A | DRSC18500 | 0.599 | -3.08 | –
IFT20 + CG10395 | DRSC22660 | -1.07 | 0.122 | –

3 entries from above, reduced to “droplet/nuclear area B-score, replicate 1”.
CG13073 [DRSC09956] = 0.491
mTerf3 [DRSC11759] = 1.82
CG13026 [DRSC09906] = 0.0103
